Patent US20120053119A1, “THERAPEUTIC METHOD FOR INCREASING PANCREATIC BETA CELL MASS” (priority 2009, published 2012)
At least one compound was matched to its structure with a doubt left.

Test system: Wnt signaling
Assay: Wnt signaling luciferase reporter assay (TOPflash/FOPflash) in INS-1 cells
Assay type: cell-based

## O=c1cc(N2CCOCC2)oc2c(-c3ccccc3)cccc12 [LY294002]
LY294002 50 microM, PD98059 10 microM, SH-5 10 nM
  effect on SDF-1-stimulated TOPflash activity: inhibited
No SDF-1
  effect on basal level TOPflash activity: do not affect
